# Data taken from the supplement of paper PMC8728848.
# This is one part of the list.
# B1: PX9961KLbvu-535-38-535 (Bacteroides vulgatus) (protein)
# chain: DKAYTDAESYTKGLHKIYSVWALSGQDGSSSSDISGLDAGNTALLRCWWTLQEQPTDEMKNAWNDAWCTEVNYMTWTTNKVEPIEGVYQRCMYIVALVNEFLKNIPNAPESIDKESYIAQARFNRAFAYYVLMDMFALPPFITEKNYSIEPAPLSREDLFNWIEAELNEIKPNLPSPRSEYGVADQAVASALLARMYLNAEIYTGKARYTECINACNEVIKAGYQLADNYADLFKADNGENPDTKKEIIYPIIFDGDKTQSWGMAAIIIGARGAEDKDVLLAHSGVDQGWAGFRATSNLVHLFDFQNDEEPKASEIQDKRGIFYDKGRSIDITSSVSGTFETEGWSVFKFSNLNSNGQPGKNTLWVDTDFPMFRLGDIYLMYAEAVARGGEGSKASAVEYINALRKRAYGDDKHNISENWLEENNFRNLLDERGRELYWEGIRRTDLVRFDLLTSGSYTWDFKGGINTGVGVNKRYNVYPIPVTDLTVNGNLQQNEGY
# What was measured:
# Assay in all cases: glycan array binding signal (z-score within array); higher = stronger binding
# Conditions in all cases: glycan notation: IUPAC condensed, linker removed
# [1] = molecular target: Neu5Ac(a2-6)Gal(b1-4)GlcNAc(b1-2)Man(a1-3)[Man(a1-6)]Man(b1-4)GlcNAc(b1-4)GlcNAc
# Method in brief: (§1)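 The binding signal is a Z-score computed within each array and averaged over linkers. Arrays of the same protein sequence at different concentrations or buffers were also averaged together. Data originate from 3228 arrays in the Consortium for Functional Glycomics database, kept only where the protein sequence was available.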
# [2] = molecular target: Neu5Ac(a2-6)Gal(b1-4)GlcNAc(b1-2)Man(a1-3)[Neu5Ac(a2-3)Gal(b1-4)GlcNAc(b1-2)Man(a1-6)]Man(b1-4)GlcNAc(b1-4)GlcNAc
# Method in brief: as §1
# [3] = molecular target: Neu5Ac(a2-6)Gal(b1-4)GlcNAc(b1-2)Man(a1-3)[Neu5Ac(a2-6)Gal(b1-4)GlcNAc(b1-2)Man(a1-6)]Man(b1-4)GlcNAc(b1-4)GlcNAc
# Method in brief: as §1
# [4] = molecular target: Neu5Ac(a2-6)Gal(b1-4)GlcNAc(b1-2)Man(a1-3)[Neu5Ac(a2-6)Gal(b1-4)GlcNAc(b1-2)Man(a1-6)]Man(b1-4)GlcNAc(b1-4)[Fuc(a1-6)]GlcNAc
# Method in brief: as §1
# [5] = molecular target: Neu5Ac(a2-6)Gal(b1-4)GlcNAc(b1-2)Man(a1-6)Man(b1-4)GlcNAc(b1-4)GlcNAc
# Method in brief: as §1
# [6] = molecular target: Neu5Ac(a2-6)Gal(b1-4)GlcNAc(b1-2)Man(a1-6)[Gal(b1-4)GlcNAc(b1-2)Man(a1-3)]Man(b1-4)GlcNAc(b1-4)GlcNAc
# Method in brief: as §1
# [7] = molecular target: Neu5Ac(a2-6)Gal(b1-4)GlcNAc(b1-2)Man(a1-6)[GlcNAc(b1-2)Man(a1-3)]Man(b1-4)GlcNAc(b1-4)GlcNAc
# Method in brief: as §1
# [8] = molecular target: Neu5Ac(a2-6)Gal(b1-4)GlcNAc(b1-2)Man(a1-6)[Man(a1-3)]Man(b1-4)GlcNAc(b1-4)GlcNAc
# Method in brief: as §1
# [9] = molecular target: Neu5Ac(a2-6)Gal(b1-4)GlcNAc(b1-2)[Neu5Ac(a2-6)Gal(b1-4)GlcNAc(b1-4)]Man(a1-3)[GlcNAc(b1-4)][Neu5Ac(a2-6)Gal(b1-4)GlcNAc(b1-2)[Neu5Ac(a2-6)Gal(b1-4)GlcNAc(b1-6)]Man(a1-6)]Man(b1-4)GlcNAc(b1-4)GlcNAc
# Method in brief: as §1
# [10] = molecular target: Neu5Ac(a2-6)Gal(b1-4)GlcNAc(b1-2)[Neu5Ac(a2-6)Gal(b1-4)GlcNAc(b1-4)]Man(a1-3)[GlcNAc(b1-4)][Neu5Ac(a2-6)Gal(b1-4)GlcNAc(b1-4)Man(a1-6)]Man(b1-4)GlcNAc(b1-4)GlcNAc
# Method in brief: as §1
# [11] = molecular target: Neu5Ac(a2-6)Gal(b1-4)GlcNAc(b1-2)[Neu5Ac(a2-6)Gal(b1-4)GlcNAc(b1-6)]Man(a1-6)[Neu5Ac(a2-6)Gal(b1-4)GlcNAc(b1-2)Man(a1-3)][GlcNAc(b1-4)]Man(b1-4)GlcNAc(b1-4)GlcNAc
# Method in brief: as §1
# [12] = molecular target: Neu5Ac(a2-6)Gal(b1-4)GlcNAc(b1-3)Gal(b1-3)GlcNAc
# Method in brief: as §1
# [13] = molecular target: Neu5Ac(a2-6)Gal(b1-4)GlcNAc(b1-3)Gal(b1-4)GlcNAc
# Method in brief: as §1
# [14] = molecular target: Neu5Ac(a2-6)Gal(b1-4)GlcNAc(b1-3)Gal(b1-4)GlcNAc(b1-2)Man(a1-3)[Neu5Ac(a2-6)Gal(b1-4)GlcNAc(b1-3)Gal(b1-4)GlcNAc(b1-2)Man(a1-6)]GalNAc
# Method in brief: as §1
# [15] = molecular target: Neu5Ac(a2-6)Gal(b1-4)GlcNAc(b1-3)Gal(b1-4)GlcNAc(b1-3)Gal(b1-4)GlcNAc
# Method in brief: as §1
# [16] = molecular target: Neu5Ac(a2-6)Gal(b1-4)GlcNAc(b1-3)Gal(b1-4)GlcNAc(b1-3)Gal(b1-4)GlcNAc(b1-2)Man(a1-3)[Neu5Ac(a2-6)Gal(b1-4)GlcNAc(b1-3)Gal(b1-4)GlcNAc(b1-3)Gal(b1-4)GlcNAc(b1-2)Man(a1-6)]GalNAc
# Method in brief: as §1
# [17] = molecular target: Neu5Ac(a2-6)Gal(b1-4)GlcNAc(b1-3)Gal(b1-4)GlcNAc(b1-3)GalNAc
# Method in brief: as §1
# [18] = molecular target: Neu5Ac(a2-6)Gal(b1-4)GlcNAc(b1-3)Gal(b1-4)GlcNAc(b1-3)[Neu5Ac(a2-6)Gal(b1-4)GlcNAc(b1-3)Gal(b1-4)GlcNAc(b1-6)]GalNAc
# Method in brief: as §1
# [19] = molecular target: Neu5Ac(a2-6)Gal(b1-4)GlcNAc(b1-3)Gal(b1-4)GlcNAc(b1-6)[Gal(b1-3)]GalNAc
# Method in brief: as §1
# [20] = molecular target: Neu5Ac(a2-6)Gal(b1-4)GlcNAc(b1-3)Gal(b1-4)[Fuc(a1-3)]GlcNAc(b1-3)Gal(b1-4)[Fuc(a1-3)]GlcNAc
# Method in brief: as §1
# [21] = molecular target: Neu5Ac(a2-6)Gal(b1-4)GlcNAc(b1-3)GalNAc
# Method in brief: as §1
# [22] = molecular target: Neu5Ac(a2-6)Gal(b1-4)GlcNAc(b1-3)[Neu5Ac(a2-6)Gal(b1-4)GlcNAc(b1-6)]GalNAc
# Method in brief: as §1
# [23] = molecular target: Neu5Ac(a2-6)Gal(b1-4)GlcNAc(b1-6)GalNAc
# Method in brief: as §1
# [24] = molecular target: Neu5Ac(a2-6)Gal(b1-4)GlcNAc(b1-6)[Gal(b1-3)GlcNAc(b1-3)]Gal(b1-4)Glc
# Method in brief: as §1
# [25] = molecular target: Neu5Ac(a2-6)Gal(b1-4)GlcNAc(b1-6)[Gal(b1-3)]GalNAc
# Method in brief: as §1
# [26] = molecular target: Neu5Ac(a2-6)Gal(b1-4)GlcNAc6S
# Method in brief: as §1
# Neu5Ac(a2-6)GalNAc = molecular target: Neu5Ac(a2-6)GalNAc
# Method in brief: as §1
# [27] = molecular target: Neu5Ac(a2-6)GalNAc(b1-4)GlcNAc
# Method in brief: as §1
# [28] = molecular target: Neu5Ac(a2-6)GalNAc(b1-4)GlcNAc6S
# Method in brief: as §1
# [29] = molecular target: Neu5Ac(a2-6)GlcNAc(b1-4)GlcNAc
# Method in brief: as §1
# [30] = molecular target: Neu5Ac(a2-6)GlcNAc(b1-4)GlcNAc(b1-4)GlcNAc
# Method in brief: as §1
binder,measurement,setting,value
B1,glycan array binding signal (z-score),[1],-0.575
same,glycan array binding signal (z-score),[2],0.103
same,glycan array binding signal (z-score),[3],-0.052
same,glycan array binding signal (z-score),[4],0.258
same,glycan array binding signal (z-score),[5],-0.118
same,glycan array binding signal (z-score),[6],-0.997
same,glycan array binding signal (z-score),[7],0.537
same,glycan array binding signal (z-score),[8],-0.19
same,glycan array binding signal (z-score),[9],0.412
same,glycan array binding signal (z-score),[10],-0.277
same,glycan array binding signal (z-score),[11],-0.019
same,glycan array binding signal (z-score),[12],0.768
same,glycan array binding signal (z-score),[13],0.42
same,glycan array binding signal (z-score),[14],0.776
same,glycan array binding signal (z-score),[15],-0.49
same,glycan array binding signal (z-score),[16],1.25
same,glycan array binding signal (z-score),[17],-0.817
same,glycan array binding signal (z-score),[18],0.137
same,glycan array binding signal (z-score),[19],-0.167
same,glycan array binding signal (z-score),[20],0.638
same,glycan array binding signal (z-score),[21],-1.14
same,glycan array binding signal (z-score),[22],-0.054
same,glycan array binding signal (z-score),[23],1.1
same,glycan array binding signal (z-score),[24],-0.741
same,glycan array binding signal (z-score),[25],-0.121
same,glycan array binding signal (z-score),[26],-0.707
same,glycan array binding signal (z-score),Neu5Ac(a2-6)GalNAc,-0.303
same,glycan array binding signal (z-score),[27],-0.718
same,glycan array binding signal (z-score),[28],-0.47
same,glycan array binding signal (z-score),[29],-0.213
same,glycan array binding signal (z-score),[30],-0.846

# Nine consecutive entries out of the list so far, quoted:
binder,measurement,setting,value
B1,glycan array binding signal (z-score),[6],-0.997
same,glycan array binding signal (z-score),[7],0.537
same,glycan array binding signal (z-score),[8],-0.19
same,glycan array binding signal (z-score),[9],0.412
same,glycan array binding signal (z-score),[10],-0.277
same,glycan array binding signal (z-score),[11],-0.019
same,glycan array binding signal (z-score),[12],0.768
same,glycan array binding signal (z-score),[13],0.42
same,glycan array binding signal (z-score),[14],0.776
